The values below are quoted from earlier work in patent publication US20090214648A1 (priority 2008, published 2009).

As to `CC(C)Cc1ccc(C(C)C(=O)O)cc1` (centres unmarked) [Ibuprofen, 2-[4-(2-methylpropyl)phenyl]propanoic acid], the “Solubility in organic solvents” value (alcohol, chloroform, acetone, methanol, ether and dichloromethane) is recorded as “soluble”. Also, where the note is “water”, the Solubility in water entry is on record as “practically insoluble”.
